No constants are given. Whether binding was seen depends on the method and setting. Binding seen in cells or lysates may run through a third protein. Some entries that bind do so weakly or less than the wild type.
Columns and labels:
[1] = target: CDK4 (human (endogenous in H358-PR250)) (UniProt P11802); assay: condition: only cells treated with 100 nM PD0325901 for 24 hours; co-IP; endogenous proteins in lysates of H358-PR250 cells treated with 100 nM PD0325901 for 24 hours; Western blot
[2] = target: CDK4 (human (endogenous in H358-PR250)) (UniProt P11802); assay: co-IP; endogenous proteins in lysates of H358-PR250 cells (for CDK7 also parental H358 cells) treated with vehicle or 100 nM PD0325901 for 24 hours; Western blot
[3] = target: CDK7 (human (endogenous in H358 and H358-PR250)) (UniProt P50613); assay: as above
[4] = target: CDK6 (human (endogenous in H358-PR250)) (UniProt Q00534); assay: as above

Amino acid sequences for entries named in this document (tags omitted).
UniProt P11802: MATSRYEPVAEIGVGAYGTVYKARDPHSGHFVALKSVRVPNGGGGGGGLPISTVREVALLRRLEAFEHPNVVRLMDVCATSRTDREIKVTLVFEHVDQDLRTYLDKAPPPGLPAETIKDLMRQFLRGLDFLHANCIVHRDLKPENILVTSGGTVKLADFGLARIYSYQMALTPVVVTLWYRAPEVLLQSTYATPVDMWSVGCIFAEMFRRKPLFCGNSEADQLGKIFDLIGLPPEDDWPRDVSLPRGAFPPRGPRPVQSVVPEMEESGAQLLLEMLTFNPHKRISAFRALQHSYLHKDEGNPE
UniProt P50613: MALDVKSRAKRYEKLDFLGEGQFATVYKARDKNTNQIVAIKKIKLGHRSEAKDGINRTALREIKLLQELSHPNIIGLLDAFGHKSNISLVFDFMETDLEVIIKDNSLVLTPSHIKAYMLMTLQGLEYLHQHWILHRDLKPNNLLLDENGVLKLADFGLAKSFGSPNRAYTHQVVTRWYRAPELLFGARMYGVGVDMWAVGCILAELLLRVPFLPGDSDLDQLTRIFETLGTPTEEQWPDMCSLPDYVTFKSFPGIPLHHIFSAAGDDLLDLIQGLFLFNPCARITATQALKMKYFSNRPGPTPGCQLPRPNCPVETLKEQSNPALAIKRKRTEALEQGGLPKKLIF
UniProt Q00534: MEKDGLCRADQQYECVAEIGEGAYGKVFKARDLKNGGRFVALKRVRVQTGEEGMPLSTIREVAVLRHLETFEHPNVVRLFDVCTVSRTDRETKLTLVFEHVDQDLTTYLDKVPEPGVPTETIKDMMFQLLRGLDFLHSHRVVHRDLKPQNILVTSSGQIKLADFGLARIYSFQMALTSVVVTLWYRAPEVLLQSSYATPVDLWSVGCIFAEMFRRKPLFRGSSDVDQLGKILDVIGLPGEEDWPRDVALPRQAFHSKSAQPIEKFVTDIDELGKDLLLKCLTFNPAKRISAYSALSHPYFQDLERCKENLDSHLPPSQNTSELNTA
UniProt P46527: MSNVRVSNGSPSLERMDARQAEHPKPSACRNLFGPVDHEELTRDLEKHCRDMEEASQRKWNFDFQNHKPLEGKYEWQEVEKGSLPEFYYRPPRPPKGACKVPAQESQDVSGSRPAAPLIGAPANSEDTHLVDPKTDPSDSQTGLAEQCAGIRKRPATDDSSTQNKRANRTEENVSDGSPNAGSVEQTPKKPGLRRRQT

binding [1]: no binding
binding [2]: binds
binding [3]: binds
binding [4]: binds
Substance: p27^Kip1 (from UniProt P46527 1-198)
